Measurements published in patent publication US20200046712A1, “PROCESS FOR MAKING 1,3,7- TRIMETHYLURIC ACID WATER SOLUBLE SALTS OR CO-CRYSTALS AND THEIR USAGE IN DIETARY SUPPLEMENTS OR FUNCTIONAL FOODS FORMULATIONS” (Arcadia Biotechnology Ltd., priority 2018, published 2020).

Assay: Bitterness assessments test (triangle test, trained panelists)
Conditions: for bitterness and aftertaste of drink formulation: 200 mg in flavored drink formula dissolved in 10 Oz cold water, with or without 200 mg caffeine anhydrous, two groups of three trained panelists
Description: Various bitterness assessments tests were conducted using triangle test method in order to compare formulations made with 1,3,7-trimethyluric acid or salt versus formulations made using theacrine (1,3,7,9-tetramethyluric acid);
The flavor profile on all formulations was kept in the same amounts in order to have no influence from it. The type of color and the color amount was the same in both formulas so that when dissolved into the water will match. A control sample was also prepared as “placebo” and given to both groups of panelist in a random order.
Two groups of three trained panelists were chosen for the triangle test in order to identify the odd samples.
To the first group of panelist, three drink samples were given in random order to taste: two of the same sample and one that was different:
First sample formula contains the following: […]
The second formula contains the following: […]
All samples formulas were dissolved separately into 10 Oz of cold water and shook to dissolve. The cups were filled in with each formula drink and were given to the first group of panelists in random order. Panelists were then asked to evaluate the overall attributes and identify the odd sample
The same kind of experiment was repeated using the second group of panelists comparing now the 1,3,7-trimethyluric sodium salt versus theacrine (1,3,7,9-tetramethyluric acid) with the addition of caffeine anhydrous in each formulation on equal amounts.
First formula contains the following: […]
Second formula contains the following: […]
Caffeine was added in both formulations in equal amounts and the flavor profiles were kept the same as in the first set of experiments. The first sample and the second sample formulas were dissolved separately into 10 Oz of cold water and shook to dissolve. 3 cups, 2 of which were filled in with first formula drink and a third cup filled with the second sample formula drink, were given to the first group of panelists in random order. Panelists were then asked to evaluate the overall attributes and identify the odd sample.

SMILES	bitterness and aftertaste of drink formulation	difference in flavor and taste versus control (placebo) sample (200 mg in flavored drink formula in 10 Oz cold water, alone or combined with caffeine)
Cn1c(=O)c2c(n(C)c1=O)n(C)c(=O)n2C [theacrine, 1,3,7,9-tetramethyluric acid, reference compound]	significant and intolerable	
Cn1c(=O)c2c([nH]c(=O)n2C)n(C)c1=O [1,3,7-trimethyluric acid]	almost no bitterness or aftertastes	No significant difference
